From PubChem BioAssay AID624291 (National Center for Advancing Translational Sciences (NCATS), 2012)
In all, about 350,000 compounds went through this assay and about 220 (0.063%) were called active. The shares of active, inactive and inconclusive entries below differ from those in the screen. The call rests on the fitted dose curve; in most records, active means well fitted activation curve with a large enough effect; inconclusive means small, poorly fitted or top-dose-only effect; inactive means no such curve, though single readings can be large or run the other way. Potencies beside an inconclusive call are fits to weak or partial responses and may not hold up.

Assay: qHTS for Activators of Integrin-Mediated Alleviation for Muscular Dystrophy; further: nearly all actives have a fitted effect of over 60% in size
Settings: alpha7betagal myoblasts, beta-gal FDG fluorescence, 48 h; series mostly up to 38.3 µM
In short: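 Alpha7betagal+/- myoblasts (passage 13) were plated 16-24 hr, then exposed to compounds (1:260 dilution of DMSO stock) for 48 hours at 37C. After MPER lysis, β-galactosidase reporter activity was read as FDG fluorescence (ex 480/em 540) after 30 minutes.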
Potency means the concentration at half of the fitted maximal effect.

| Compound | Potency |
| --- | --- |
| CCOC(=O)c1cc2c(=O)n3ccccc3nc2n(Cc2ccco2)c1=NC(=O)c1ccc(OC)cc1 | inactive |
| Cc1ccc(NC(=O)CNC(=O)c2ccco2)cc1 | inactive |
| Cc1cccc(NC(=S)N(C)C2CCCCC2)c1 | inconclusive: 5.01 µM [activator, single point] |
| O=C(Cc1cccs1)NCCc1ccc(Cl)cc1 | inactive |
| Cc1ccc(-c2cc(C)nc3ncnn23)cc1 | inactive |
| COc1ccc(-c2cc(=O)oc3c(O)c(O)ccc23)cc1 | inconclusive: 12.6 µM [activator, single point] |
| Cc1ccc(Nc2cc(=O)n(C)c(=O)[nH]2)cc1C | inactive |
| O=c1oc(-c2ccccc2)cc(Cl)c1Cl | inconclusive: 5.01 µM [activator, single point] |
| CSc1cccc(NC(=O)c2[nH]c(C)c(C(C)=O)c2C)c1 | inconclusive: 1.41 µM [activator, single point] |
| CC(C)NC(=O)NC(=O)CSc1ncccn1 | inconclusive: 5.01 µM [activator, single point] |
| CC(NC(=O)COC(=O)C1=NN(c2ccccc2)C(=O)CC1)c1ccccc1 (centres undefined) | inactive |
| CC1=C(C(N)=O)C(c2ccccc2)n2nc(-c3ccncc3)nc2N1 (centres undefined) | inconclusive: 11.2 µM [activator, single point] |
| FC(F)(F)COc1ccc(-n2ccnc2)nn1 | inconclusive: 12.6 µM [activator, single point] |
| Cc1nonc1CC(=O)N1CCCC(C(=O)c2cccc(C(F)(F)F)c2)C1 (centres undefined) | inconclusive: 3.55 µM [activator, partial curve, poor fit] |
| Cc1cccc(NC(=O)COC(=O)CSc2ccccc2)c1C | inconclusive: 5.01 µM [activator, single point] |
| CC(=O)c1cccc(NC(=O)C(=O)Nc2cccc3ccccc23)c1 | active: 8.91 µM |
| NC(=O)c1ccc(NS(=O)(=O)c2ccc(Br)s2)cc1 | inconclusive: 28.2 µM [activator, single point] |
| CSc1nnc(C2CCN(CC(=O)Nc3ccccc3N3CCOCC3)CC2)n1C(C)C | inactive |
| O=C(O)CCc1nn2cc(-c3ccccc3)nc2[nH]c1=O | inactive |
| Cc1cccc(S(=O)(=O)N2CCC(CO)(Cc3ccccc3)CC2)c1 | inconclusive: 3.16 µM [activator, single point] |
| Cc1cc(C(=O)COC(=O)c2ccc(O)cc2O)c(C)n1C(C)C | inconclusive: 5.01 µM [activator, single point] |
| CCNC(=S)NNC(=O)c1cc(-c2cccnc2)nc2ccccc12 | inconclusive: 5.01 µM [activator, single point] |
| COc1ccc(NC(=O)c2ccccc2NC(=O)CN2CCCCCC2)cc1 | inconclusive: 3.98 µM [activator, single point] |
| COC(=O)c1sc(NC(=O)c2c(F)cccc2F)c(C#N)c1C | inconclusive: 2 µM [activator, single point] |
| Cc1ccc(C(=O)CCC(=O)Nc2ncccc2C)cc1 | inconclusive: 3.55 µM [activator, partial curve, poor fit] |

| Compound | Potency |
| --- | --- |
| CC1=CC(C)(C)n2c(O)c(C3=NC(=S)NC3=O)c3cc(OC(=O)c4cccc5ccccc45)cc1c32 | inactive |
| Cc1cccc(C)c1NS(=O)(=O)c1c(C)[nH]c(=O)[nH]c1=O | inactive |
| O=[N+]([O-])c1cccc(Nc2c([N+](=O)[O-])ccc3nonc23)c1 | inconclusive: 3.98 µM [activator, partial curve] |
| CC(C)(C)c1ccc(/C=C/C(=O)NCCCN2CCOCC2)cc1 | inconclusive: 3.98 µM [activator, partial curve, poor fit] |
| O=C(O)c1ccc(-c2nnc(-c3ccc([N+](=O)[O-])cc3)o2)cc1 | inconclusive: 25.1 µM [activator, single point] |
| COC(=O)CSc1ccccc1C(=O)OC | inactive |
| COc1ccc(-c2nc3ccccn3c2Cl)cc1 | inconclusive: 3.16 µM [activator, full curve, poor fit] |
| COc1ccc(N2C(=O)c3ccc(C(=O)Nc4ccccc4OC)cc3C2=O)cc1 | inconclusive: 3.16 µM [activator, single point] |
| Cc1cc(/C=N/NC(=O)C(=O)NCc2ccccn2)c(C)n1-c1cccc(Br)c1 | inconclusive: 5.01 µM [activator, single point] |
| Cc1ccc(S(=O)(=O)CC(=O)NC(C)c2ccccc2)cc1 (centres undefined) | inconclusive: 5.01 µM [activator, single point] |
| CC1CCCC(C)N1CCCNC(=O)CCn1c(=O)c2cccn2c2cccnc21 (centres undefined) | inconclusive: 1.12 µM [activator, single point] |
| N#Cc1c(SCC(=O)Nc2nc3ccccc3s2)sc2c(O)cc(=O)[nH]c12 | inactive |
| COc1ccc(S(=O)(=O)N2CCOCC2)cc1NC(=O)CSc1nnc(C2CC2)n1C | inconclusive: 8.91 µM [activator, partial curve, poor fit] |
| O=C(O)c1ccc(N/N=C/c2c(F)cccc2Cl)cc1 | inconclusive: 1 µM [activator, partial curve, poor fit] |
| Cc1cccc(OCC(=O)Nc2c3c(nn2C(C)(C)C)CS(=O)(=O)C3)c1 | inconclusive: 4.47 µM [activator, single point] |
| CCCC(c1nnnn1C(C)(C)CC)N1CCN(C(=O)c2ccco2)CC1 (centres undefined) | inconclusive: 2.51 µM [activator, single point] |
| N#Cc1cc2c(=O)n3ccccc3nc2n(Cc2ccco2)c1=NC(=O)c1ccco1 | inactive |
| CCC(C)c1ccccc1OCCOCCN1CCCC1 (centres undefined) | inactive |
| O=C(NNC(=O)c1ccccc1Br)c1ccc2nc[nH]c2c1 | inconclusive: 5.01 µM [activator, single point] |
| CCOC(=O)Nc1sc2c(c1C(=O)OCC)CCC2 | inactive |
| O=Cc1sc(=O)n(Cc2cccc(C(=O)O)c2)c1Cl | inconclusive: 3.55 µM [activator, partial curve, poor fit] |
| COc1ccccc1/C=C/C(=O)OCC(=O)NCc1ccc2c(c1)OCO2 | inconclusive: 5.01 µM [activator, single point] |
| Cc1ccc(C)n1-c1ccc(-c2ccnc(N)n2)cc1 | inactive |
| Cc1ccc(S(=O)(=O)/N=C(\N)Nc2nc(C)c3ccccc3n2)cc1 | inactive |
| CCc1ccc(S(=O)(=O)NC(=S)NC2CCCCC2)cc1 | inactive |

| Compound | Potency |
| --- | --- |
| Cc1cc(NC(=O)/C(C#N)=C/c2ccc(-c3ccc(SC(F)F)cc3)o2)n(-c2ccccc2)n1 | inactive |
| Cc1ccccc1/C=C\c1nc2ccccc2c(=O)[nH]1 | inactive |
| Cc1c(C)c2ccc(O)c(CN3CCCC3)c2oc1=O | inactive |
| CCN(CC(=O)NCc1ccc(F)cc1)C(=O)/C=C/c1ccc(OC)cc1 | inactive |
| Cc1nc2cc(NC(=O)C3COc4ccccc4O3)ccc2s1 (centres undefined) | inconclusive: 5.01 µM [activator, single point] |
| CCOC(=O)CSc1cccc2cccnc12 | inactive |
| COc1cccc(C(C)NC(=S)NCc2ccc(Cl)cc2)c1 (centres undefined) | inconclusive: 4.47 µM [activator, single point] |
| Cc1ccc(S(=O)(=O)N(C)C)cc1NC(=O)C1CCCCC1 | inconclusive: 3.98 µM [activator, full curve, poor fit] |
| COc1ccc(N2CCN(C(=O)C3CCN(S(=O)(=O)c4c(C)noc4/C=C/N(C)C)CC3)CC2)cc1 | inconclusive: 10 µM [activator, partial curve, poor fit] |
| O=C(CNC(=O)c1ccccc1F)Nc1ccc2c(c1)OCO2 | inconclusive: 2 µM [activator, partial curve, poor fit] |
| Cc1ccc2cn[nH]c2c1NC(=S)NC(=O)c1ccccc1 | inactive |
| Oc1c(CN2CCCCC2)cc(COCc2ccccc2)c2cccnc12 | inactive |
| c1ccc(-c2nnc3sc(-c4ccncc4)nn23)cc1 | inconclusive: 7.94 µM [activator, partial curve, poor fit] |
| Cn1c(=O)[nH]c(=O)c2c1nc(NCCO)n2CCOc1ccccc1 | inconclusive: 3.55 µM [activator, partial curve, poor fit] |
| C/C(N)=C(/C#N)C(=O)COC(=O)CSc1ccccc1 | inconclusive: 28.2 µM [activator, single point] |
| COc1cccc(C(=O)Nc2nnc(C(C)C)s2)c1 | inactive |
| COc1ccc(N2CCN(C(=O)c3[nH]c4ccc(OC)cc4c3C)CC2)cc1 | inconclusive: 3.55 µM [activator, single point] |
| CN1C(=O)/C(=C/c2ccccc2F)Sc2ccc(C(=O)N3CCCC3)cc21 | inactive |
| Cc1cccc(C)c1Nc1nnc(SCC(=O)Nc2ncc(C(F)(F)F)cc2Cl)s1 | inconclusive: 15.8 µM [activator, single point] |
| Cc1cccc(-n2ncc3c(=O)[nH]c(SCC(=O)NCCC4=CCCCC4)nc32)c1 | inconclusive: 8.91 µM [activator, single point] |
| Cc1onc(-c2ccccc2)c1C(=O)N/N=C/c1ccc([N+](=O)[O-])s1 | inactive |
| O=C(COC(=O)CCSc1ccccc1)NCc1ccccc1 | inconclusive: 2.82 µM [activator, full curve, poor fit] |
| CCOC(=O)N1CCC(c2cc(=O)n(-c3ccccc3)[nH]2)CC1 | inconclusive: 5.01 µM [activator, single point] |
| CCC(CO)Oc1cc(NCc2ccc(Cl)cc2Cl)c2ncn(C(C)C)c2c1 (centres undefined) | inactive |

Looked up one by one from the entries so far:

| Compound | Potency |
| --- | --- |
| c1ccc(-c2nnc3sc(-c4ccncc4)nn23)cc1 | inconclusive: 7.94 µM [activator, partial curve, poor fit] |
| CC1=CC(C)(C)n2c(O)c(C3=NC(=S)NC3=O)c3cc(OC(=O)c4cccc5ccccc45)cc1c32 | inactive |

Looked up above:
`Cc1cccc(C)c1NS(=O)(=O)c1c(C)[nH]c(=O)[nH]c1=O` – Potency: inactive
`Cc1cccc(C)c1Nc1nnc(SCC(=O)Nc2ncc(C(F)(F)F)cc2Cl)s1` – Potency: inconclusive: 15.8 µM [activator, single point]
